This passage reports binding results from US20220227870A1.

Amino acid sequences for entries named in this document (tags omitted). Residues count along the entry.
UniProt Q08722, residues 19-323: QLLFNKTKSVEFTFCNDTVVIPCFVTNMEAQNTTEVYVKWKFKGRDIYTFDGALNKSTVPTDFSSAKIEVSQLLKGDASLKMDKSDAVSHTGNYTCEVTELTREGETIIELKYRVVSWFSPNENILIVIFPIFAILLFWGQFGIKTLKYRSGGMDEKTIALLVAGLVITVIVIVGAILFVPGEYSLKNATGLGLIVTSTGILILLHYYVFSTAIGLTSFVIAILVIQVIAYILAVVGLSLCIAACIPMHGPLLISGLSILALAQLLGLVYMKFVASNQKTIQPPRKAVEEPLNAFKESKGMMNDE

Test [1] deals with human CD47 expressed on the surface of cells (CHO-S-CD47 cells) (human) (UniProt Q08722). As to the kind of experiment: FACS on CHO-S cells overexpressing human CD47, PE-conjugated anti-human Fc detection, MFI.
The target is the same in test [2]. Nature of the test: FACS on CHO-S-CD47 cells; ADI 29341 as positive control.

These are yes or no findings as the source states them, for the method shown. Some binding calls cover weakened binding; strength is not graded here.

B1: anti-CD47 antibody ADI-29341 (antibody, V domains shown)
VH: QVQLQESGPGLVKPSETLSLTCTVSGGSIEHYYWSWIRQPPGKGLEWIGYIYYSGSTNYNPSLKSRVTISVDTSKNQFSLKLSSVTAADTAVYYCARGKTGSAAWGQGTLVTVSS
VL: DIQMTQSPSSVSASVGDRVTITCRASQGISRWLAWYQQKPGKAPKLLIYAASSLQSGVPSRFSGSGSGTDFTLTISSLQPEDFATYYCQQTVSFPITFGGGTKVEIK
Regarding B1, the binding entry in test [1] and in test [2] was “binds” in each case.
